From patent US5582997A, “Lysine/leucine polypeptides, mixture sets and libraries thereof” (priority 1994, dated 1996)
Not every detail of the peptide structures is certain; ends, links or a residue may be inferred. Where no end group is shown, it is not given here.

Test: Polypeptide conformation by CD spectroscopy
Type: physicochemical
Conditions: in the presence of 200 mM NaCl, 25° C.

LKLLKKLLKKLKKLLKKL-NH2 [SEQ ID NO:1]
percent of α-helices (helicity): 5-10%
